Results published in PubChem BioAssay AID2685 (National Center for Advancing Translational Sciences (NCATS), 2010).
This is one part of the list. These are further read-outs of the screen, such as a control signal, another cell line or another target. No call is given for them. Compounds called inactive in the main read-out are mostly missing here. Potencies come from curve fits of mixed quality, noted in brackets.

Assay: qHTS Assay for Lipid Storage Modulators in Drosophila S3 Cells;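 for cell number change: cells counted by Cell Tracker Red CMTPX staining in the red channel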
Conditions: BODIPY lipid droplet fluorescence, 18-24 h; for cell number change: measured here: cell count max response, cells fed with added oleic acid
Outline: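 Drosophila S3 cells got compounds at several concentrations plus oleic acid (400 uM solution). Laser-scanning cytometry with 488 nm excitation read lipid droplets at 500-530 nm and cells at 575-640 nm. Percent activity was relative to 20 uM Triacsin C.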

[1] = measured here: lipid fluorescence (Fed channel) AC50, cells fed with added oleic acid
[2] = measured here: cell number channel AC50, cells fed with added oleic acid

Structure (SMILES)	cell number change	AC50 [1]	AC50 [2]
Cc1ccc(S(=O)(=O)NC(=NC(C)C(=O)O)c2ccccc2)cc1 (centres undefined)	0.593%	0.0058 µM [falling, full curve, poor fit]	
CC(=O)NC12CC3CC(C1)CC(C(=O)NCC(=O)Nc1c(C)cc(C)cc1C)(C3)C2	5.27%	0.00517 µM [rising, full curve, poor fit]	
COc1ccccc1-c1noc(-c2ccccc2C(=O)NCC2CCCO2)n1 (centres undefined)	-74.4%		29.1 µM [falling, single point]
Cc1ccnn1-c1ccc(C(=O)NCC(c2ccco2)N2CCCC2)cc1 (centres undefined)	-20.4%	0.00411 µM [falling, full curve, poor fit]	
O=C(CNC(=O)c1ccccc1F)NCC(c1cccs1)N1CCOCC1 (centres undefined)	-14.7%		
COC(=O)c1ccc(S(=O)(=O)N2CCOCC2)o1	0.0449%		0.00517 µM [rising, full curve, poor fit]
COc1cccc(-c2nc(C#N)c(N3CCN(C(=O)c4ccco4)CC3)o2)c1	-36.4%	16.4 µM [falling, partial curve, poor fit]	29.1 µM [falling, single point]
O=C(O)c1ccccc1NS(=O)(=O)c1cccc2nsnc12	-0.525%	29.1 µM [falling, single point]	
Cc1c(Cl)c([N+](=O)[O-])nn1CC(=O)N1CCc2ccccc2C1	2.59%		0.326 µM [rising, partial curve, poor fit]
O=C(NC(=S)Nc1ccc(N2CCCCC2)c(Cl)c1)c1ccc2c(c1)OCCO2	-2.82%		
C#CC[N+](C)(C)CC#Cc1ccc(C)cc1	2.32%		
O=C(COc1ccc2ccccc2c1)Nc1ccccc1C(=O)O	-9.54%	4.61 µM [rising, single point]	
O=C(CN(Cc1ccc2c(c1)OCO2)C(=O)CNS(=O)(=O)c1ccccc1)NCc1ccco1			4.11 µM [rising, single point]
CCCCOc1ccc(C2/C(=C(/O)c3ccc4c(c3)CC(C)O4)C(=O)C(=O)N2CCCN2CCOCC2)cc1OC (centres undefined)		29.1 µM [falling, single point]	
Cc1ccc(Nc2ncnc3nc[nH]c23)cc1Cl	40.6%	0.731 µM [rising, full curve]	6.51 µM [rising, partial curve, poor fit]
O=C(Cn1cc(SCc2ccc(F)cc2)c2ccccc21)N1CCOCC1	-20.9%	20.6 µM [falling, single point]	
COc1nc(C)nc(C)c1Oc1ccc(Cl)cc1Cl	-2.97%		0.00517 µM [rising, full curve, poor fit]
Cc1oc(C(C)(C)C)c(CN2CCOCC2)c1C(=O)O	13.5%	0.259 µM [rising, full curve, poor fit]	
CCn1c(O)c(C=NC2CCCC2)sc1=S	-14.5%	0.00461 µM [falling, full curve, poor fit]	
COc1cc2cc(C(c3nnnn3C(C)(C)C)N3CCc4ccccc43)c(=O)[nH]c2cc1OC (centres undefined)	-2.15%	2.31 µM [rising, single point]	0.00461 µM [falling, full curve, poor fit]

Some of the entries above in a different format.
Structure (SMILES),cell number change,AC50 [1],AC50 [2]
COC(=O)c1ccc(S(=O)(=O)N2CCOCC2)o1,0.0449%,,"0.00517 µM [rising, full curve, poor fit]"
COc1cccc(-c2nc(C#N)c(N3CCN(C(=O)c4ccco4)CC3)o2)c1,-36.4%,"16.4 µM [falling, partial curve, poor fit]","29.1 µM [falling, single point]"
O=C(O)c1ccccc1NS(=O)(=O)c1cccc2nsnc12,-0.525%,"29.1 µM [falling, single point]",
Cc1c(Cl)c([N+](=O)[O-])nn1CC(=O)N1CCc2ccccc2C1,2.59%,,"0.326 µM [rising, partial curve, poor fit]"
O=C(NC(=S)Nc1ccc(N2CCCCC2)c(Cl)c1)c1ccc2c(c1)OCCO2,-2.82%,,

The results go on.

Structure (SMILES)	cell number change	AC50 [1]	AC50 [2]
CCOC(=O)C1=NNC2C(=O)N(Cc3ccccc3)C(=O)C12 (centres undefined)	19.8%	29.1 µM [rising, single point]	
CCCc1ccc(NC(C)C(=O)Nc2ccc(S(=O)(=O)N3CCOCC3)cc2)cc1 (centres undefined)		29.1 µM [rising, single point]	
NC(=O)[C@H]1CC2(CC(c3cccc(NC(=O)COc4ccc(Cl)cc4)c3)=NO2)CN1C(=O)Cc1ccc([N+](=O)[O-])cc1 (some centres undefined)	-19.6%	29.1 µM [falling, single point]	
Cc1ccnc(NC(=O)CCC(=O)N(CC(=O)NC(C)(C)C)c2ccc(F)c(Cl)c2)c1	-36.5%	20.6 µM [falling, single point]	16.4 µM [falling, single point]
Cc1cc(C)c2cc(CN(CCN3CCCC3)C(=O)Nc3ccc(F)cc3)c(=O)[nH]c2c1	-6.76%	18.4 µM [falling, single point]	
O=C(N/C(=C/c1ccccc1)C(=O)N1CCCCC1)c1ccco1	-8.29%	18.4 µM [rising, single point]	
O=C(COC(=O)c1cc(Cl)ccc1O)NC(=O)NCc1ccccc1	8.4%		0.461 µM [falling, single point]
Cc1c(Br)c([N+](=O)[O-])nn1CC(=O)Nc1ccc(C(C)C)cc1			1.46 µM [falling, partial curve]
CC1=C(C#N)C(c2cccnc2)C2=C(CC(C)(C)CC2=O)N1 (centres undefined)	-17.3%		0.116 µM [falling, single point]
CN1CCN(c2ccccc2NC(=O)c2ccc(-c3ccc(Cl)cc3Cl)o2)CC1	-70.6%	29.1 µM [falling, single point]	29.1 µM [falling, single point]
C=CCn1c(CCNC(=O)c2cccs2)nnc1SCC(=O)Nc1cccc(F)c1	34.1%		8.2 µM [rising, single point]
Cc1ccc(S(=O)(=O)N2CCOCC2)cc1NC(=O)CSc1nnc(N)s1	117%	29.1 µM [rising, single point]	11.6 µM [rising, partial curve]
O=C(NCCc1cn[nH]c1)C1CCC(=O)N(CCc2cccc(F)c2)C1 (centres undefined)	16.4%	0.58 µM [falling, single point]	
CN(C1=NS(=O)(=O)c2ccccc21)c1ccc(OC(=O)c2ccccc2)cc1	44.9%		3.26 µM [rising, partial curve]
CC1(C)CC(NC(=O)c2cccc([N+](=O)[O-])c2)CC(C)(C)N1	21.8%	29.1 µM [falling, single point]	
O=C(NCCc1c[nH]c2ccccc12)C(=O)NCC1OCCN1S(=O)(=O)c1ccc(Cl)cc1 (centres undefined)	1.08%	1.64 µM [rising, partial curve]	
CC(C)CC(/C(O)=C(\C#N)c1nc2ccccc2[nH]1)N1C(=O)c2ccccc2C1=O (centres undefined)	6.75%	6.51 µM [rising, single point]	
Cc1nn(-c2ccccc2)c(N2CCCCC2)c1/C=N/NC(=O)c1ccncc1		0.517 µM [rising, single point]	
CCc1nc2ccccc2c(C(=O)Nc2cccc(C)c2)c1C	7.94%	29.1 µM [rising, partial curve, poor fit]	
CCN(CC)S(=O)(=O)c1ccc2oc(SCC(=O)NC3CC3)nc2c1	17.8%	0.116 µM [rising, full curve, poor fit]	

Structure (SMILES)	cell number change	AC50 [1]	AC50 [2]
CC(=O)NC(=S)Nc1ccc(S(=O)(=O)Nc2nc(C)cc(C)n2)cc1	-35%	0.291 µM [falling, single point]	
COc1ccc(OC)c(/C=N/NC(=O)c2c(C)nc3ccc(C)cn23)c1		0.58 µM [rising, single point]	0.92 µM [rising, single point]
CC(C)c1nnc(NC(=O)c2nc(S(=O)(=O)Cc3ccccc3)ncc2Cl)s1	-14.5%	5.17 µM [falling, single point]	
NS(=O)(=O)c1cccc(NC(=O)COc2ncnc3c2cnn3-c2ccccc2)c1	-40.7%		
COc1ccc(O)c(CN2CCC(n3nccc3NC(=O)CCOc3ccccc3)CC2)c1	35.2%	11.6 µM [rising, partial curve, poor fit]	10.3 µM [rising, partial curve]
CCOC(=O)c1[nH]c2c(c1C)C(=O)CC(c1ccc(F)cc1)C2 (centres undefined)		0.13 µM [rising, full curve, poor fit]	0.146 µM [rising, full curve, poor fit]
Cc1ccc(C(=O)N2CCOCC2)cc1[N+](=O)[O-]	-16.5%	0.651 µM [falling, full curve, poor fit]	
O=C1/C(=C/c2ccncc2)N=C2CCCCCN12	9.66%		
Cc1ccc(CNC(=O)CN2CCCC(C)C2)cc1 (centres undefined)	2.99%		
COC(=O)Cn1c(=NC(=O)C2COc3ccccc3O2)sc2cc(S(N)(=O)=O)ccc21 (centres undefined)	20%	1.16 µM [falling, full curve, poor fit]	
CCOc1ccc(NC(=O)CN2CCN(CC(=O)Nc3cccc(F)c3)CC2)cc1	-29.9%		
O=C(c1ccc(F)cc1)N1CCN(C2CCCCC2)CC1	-19.6%		
COc1ccccc1CNC(=O)C(=O)NCCC1CCCCN1S(=O)(=O)c1ccccc1 (centres undefined)	-30.5%	29.1 µM [falling, single point]	11.6 µM [falling, partial curve]
CCN1CCN(c2ccc(S(=O)(=O)N3CCCCC3)cc2NC(=O)c2ccc(C)o2)CC1	41.8%	18.4 µM [rising, partial curve]	16.4 µM [rising, partial curve]
Cc1ccc(C(c2nnnn2C(C)(C)C)N2CCc3ccccc3C2)cc1 (centres undefined)	-13.2%	1.16 µM [falling, full curve]	
Cn1c(SCC(=O)Nc2cccc(S(=O)(=O)NC3=NCCCCC3)c2)nnc1-c1ccncc1		6.51 µM [rising, single point]	
CC(C)(C)c1ccc(C(=O)Nc2ccc([N+](=O)[O-])cn2)cc1	6.76%		
C=CCn1c(NCc2ccc3c(c2)OCO3)nc2ccccc21		0.058 µM [rising, full curve, poor fit]	
